{"source": "PubChem BioAssay AID504834", "about": "(National Center for Advancing Translational Sciences (NCATS), 2011)", "note": "Screen size: about 320,000 compounds; about 22,000 (6.9%) were called active. The inconclusive results got no clear call from the source; some entries with a clear call stand among them for comparison. The call rests on the fitted dose curve; in most records, active means well fitted inhibition curve with a large enough effect; inconclusive means small, poorly fitted or top-dose-only effect, or another doubt; inactive means no such curve, though single readings can be large or run the other way. Potencies of inconclusive entries are doubtful fits and often do not repeat. Potency means the concentration at half of the fitted maximal effect.", "data": [{"test": "Primary qHTS for delayed death inhibitors of the malarial parasite plastid, 96 hour incubation", "conditions": "P. falciparum luciferase reporter growth; series mostly up to 28.7 µM", "outline": "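Delayed-death screen, second-generation endpoint: infected erythrocytes, 2% hematocrit, 0.05% parasitemia final; 96 hours at 37 C, 5% CO2; luciferase detection reagent; luminescence decrease equals reduced growth.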", "values": [{"smiles": "CN1c2ccccc2C(C)(C)C12CCCC(=O)N2", "note": "(centres undefined)", "Potency": "inactive"}, {"smiles": "Cc1cccc(CNC(=O)CCc2nnc(C3CCCCC3)o2)c1", "Potency": "inconclusive: 18.5 µM [inhibitor, single point]"}, {"smiles": "CCSc1nc2nc(C)cc(C)n2n1", "Potency": "active: 11.7 µM"}, {"smiles": "COc1ccc(C(c2c(NC(=O)c3ccccc3)sc(C)c2C)N2CCN(CCO)CC2)cc1", "note": "(centres undefined)", "Potency": "inconclusive: 18.5 µM [inhibitor, single point]"}, {"smiles": "CCNC(=S)Nc1cc(C(=O)N2CCCC2)ccc1N1CCCC1", "Potency": "inactive"}, {"smiles": "Cc1ccccc1Nc1c(N)c(=O)oc2ccccc12", "Potency": "inactive"}, {"smiles": "CCCCN(C(=O)c1ccc2c(c1)OCO2)c1ccccc1", "Potency": "inactive"}, {"smiles": "O=C1c2ccccc2C(Nc2ccc(F)cc2F)N1CCN1CCOCC1", "note": "(centres undefined)", "Potency": "inconclusive: 18.5 µM [inhibitor, single point]"}, {"smiles": "CCOC(=O)N1CCN(C(=O)c2cn(CC)c3ccc(S(=O)(=O)N4CCC(C)CC4)cc3c2=O)CC1", "Potency": "inconclusive: 1.31 µM [inhibitor, partial curve, poor fit]"}, {"smiles": "COc1ccccc1C(=O)Nc1ccnn1C1CCN(CCC(C)c2ccc(C)o2)CC1", "note": "(centres undefined)", "Potency": "inconclusive: 18.5 µM [inhibitor, single point]"}, {"smiles": "COC(=O)c1ccc(Sc2ccc(Cl)cc2)c(N)c1", "Potency": "inconclusive: 0.0928 µM [inhibitor, full curve, poor fit]"}, {"smiles": "Clc1ccc(CSc2nnc(CN3CCOCC3)n2-c2ccccc2)cc1Cl", "Potency": "inconclusive: 10.4 µM [inhibitor, single point]"}, {"smiles": "CCCCN=C1CC(C)(C)CC(=O)/C1=C(/O)CCCN1C(=O)c2ccccc2C1=O", "Potency": "inconclusive: 0.928 µM [inhibitor, partial curve, poor fit]"}, {"smiles": "CN1CCc2c(sc(NC(=O)c3ccc([N+](=O)[O-])o3)c2C(N)=O)C1", "Potency": "inconclusive: 6.57 µM [inhibitor, partial curve, poor fit]"}, {"smiles": "CCn1cc(/C=C(\\NC(=O)c2ccccc2Cl)C(=O)N2CCOCC2)c2ccccc21", "Potency": "inconclusive: 18.5 µM [inhibitor, single point]"}, {"smiles": "O=C(CSc1nnc(-c2ccc(F)cc2)c2ccccc12)Nc1ccccc1Cl", "Potency": "inconclusive: 18.5 µM [inhibitor, single point]"}, {"smiles": "CCn1c(=O)c(C(=O)NNC(=O)c2cccc(Cl)c2)c(O)c2ccccc21", "Potency": "inactive"}, {"smiles": "Cc1c(OCC(=O)NCc2ccccn2)ccc2c3c(c(=O)oc12)CCCC3", "Potency": "inconclusive: 13.1 µM [inhibitor, single point]"}, {"smiles": "O=C(NC1CCCC1)c1ccc(Br)c(S(=O)(=O)N2CCCCC2)c1", "Potency": "inactive"}, {"smiles": "COc1ccc(-n2c(Cc3cccn3C)nnc2SCC(=O)NCc2ccccc2Cl)cc1", "Potency": "active: 11.7 µM"}, {"smiles": "COc1cc(Cl)ccc1OCc1cc(C(=O)N2CCN(c3ccccn3)CC2)no1", "Potency": "inactive"}, {"smiles": "Cc1ccc2c(C)c(C(=O)NCCN3CCCC(O)C3)oc2c1C", "note": "(centres undefined)", "Potency": "inactive"}, {"smiles": "CCc1ccc(NC(=O)CSc2nnc(CNC(=O)c3ccc(OC)cc3)o2)cc1", "Potency": "inconclusive: 1.31 µM [inhibitor, full curve, poor fit]"}, {"smiles": "O=C(NCC1CCCCC1)c1cccc(-c2ccc(O)cc2)c1", "Potency": "inconclusive: 11.7 µM [inhibitor, single point]"}, {"smiles": "Cc1noc(C)c1S(=O)(=O)NCc1cccc(Cl)c1", "Potency": "inconclusive: 0.928 µM [inhibitor, partial curve, poor fit]"}, {"smiles": "O=C(C1CCC(=O)N1C1CCCC1)N1CCC2(CC1)OCCO2", "note": "(centres undefined)", "Potency": "inconclusive: 4.15 µM [inhibitor, single point]"}, {"smiles": "C#CCOCCOCCOCCNc1nc(N2CCOCC2)nc(N2CCN(C(=O)Cn3cc(CC(C)O)nn3)CC2)n1", "note": "(centres undefined)", "Potency": "inconclusive: 18.5 µM [inhibitor, single point]"}, {"smiles": "O=C(O)c1cn(Cc2ccccc2Cl)c2ccc(S(=O)(=O)N3CCOCC3)cc2c1=O", "Potency": "inconclusive: 1.04 µM [inhibitor, partial curve, poor fit]"}, {"smiles": "O=C(CN1C(=O)NC2(CCCCC2)C1=O)N1CCN(S(=O)(=O)c2cccc(F)c2)CC1", "Potency": "inconclusive: 18.5 µM [inhibitor, single point]"}, {"smiles": "CSCC[C@H](NC(=O)[C@@H]1Cc2ccccc2CN1)C(=O)NC(C)c1ccccc1", "note": "(some centres undefined)", "Potency": "inactive"}, {"smiles": "Cn1c(SCC(=O)Nc2ccc(Cl)cc2F)nnc1-c1ccco1", "Potency": "inconclusive: 16.5 µM [inhibitor, single point]"}, {"smiles": "CCC(Oc1ccccc1)C(=O)Nc1ccccc1N1CCCC1", "note": "(centres undefined)", "Potency": "inconclusive: 16.5 µM [inhibitor, single point]"}, {"smiles": "COC(=O)CCCCC1SCC2NC(=O)NC21O", "note": "(centres undefined)", "Potency": "inconclusive: 0.0023 µM [inhibitor, full curve, poor fit]"}, {"smiles": "CCOCCn1c(=O)c2c(nc3n2CCCN3CCc2ccccc2)n(C)c1=O", "Potency": "active: 14.7 µM"}, {"smiles": "CCCCn1c(=S)[nH]c2c(oc3ccc(Cl)cc32)c1=O", "Potency": "inconclusive: 18.5 µM [inhibitor, single point]"}, {"smiles": "CCN(C(=O)COC(=O)c1[nH]c(=O)[nH]c(=O)c1N)c1ccccc1", "Potency": "inactive"}, {"smiles": "CCOC(=O)c1c(C)[nH]c(C(=O)CSc2nnnn2-c2ccc(C)cc2)c1C", "Potency": "inactive"}, {"smiles": "O=C(Nc1cccc(C(=O)O)c1)/C(=C\\C=C\\c1ccccc1)NC(=O)c1ccccc1", "Potency": "inconclusive: 16.5 µM [inhibitor, single point]"}, {"smiles": "CCCC/C=C1\\CCc2c([nH]c3ccccc23)C1=O", "Potency": "inactive"}, {"smiles": "CCCCCCCCNC1=CC(=O)CC(C)(C)C1", "Potency": "inconclusive: 11.7 µM [inhibitor, single point]"}, {"smiles": "O=C(Nc1ccccc1N1CCOCC1)c1cccc(S(=O)(=O)Nc2ccccc2F)c1", "Potency": "inconclusive: 11.7 µM [inhibitor, single point]"}, {"smiles": "COc1ccc(OCC(=O)N2CCN(C3CCC(c4ccccc4)CC3)CC2)cc1", "note": "(centres undefined)", "Potency": "inconclusive: 18.5 µM [inhibitor, single point]"}, {"smiles": "CC(C)Cn1c(/C=C/c2ccco2)nc2ccccc21", "Potency": "inconclusive: 18.5 µM [inhibitor, single point]"}, {"smiles": "Cc1ccn2c(CN3CCOCC3)c(-c3ccccc3)nc2c1", "Potency": "inactive"}, {"smiles": "COc1cc(CCC(=O)Nc2ccc(C)c(S(=O)(=O)N(C)C)c2)cc(OC)c1OC", "Potency": "inconclusive: 10.4 µM [inhibitor, partial curve]"}, {"smiles": "CC(=O)c1cccc(NC(=O)C2CC(=O)N(CCc3ccccc3)C2)c1", "note": "(centres undefined)", "Potency": "inconclusive: 1.47 µM [inhibitor, single point]"}, {"smiles": "O=C(Nc1ccccn1)c1c(O)c2cccc3c2n(c1=O)CCC3", "Potency": "inconclusive: 4.15 µM [inhibitor, single point]"}, {"smiles": "O=C(CS(=O)CC(=O)Nc1ccc(Cl)cc1)NCC1OCCc2ccccc21", "note": "(centres undefined)", "Potency": "inconclusive: 9.28 µM [inhibitor, single point]"}, {"smiles": "Fc1ccc(NC(=S)Nc2nccs2)cc1", "Potency": "active: 0.294 µM"}, {"smiles": "CC(=O)c1cc(C#N)c(SCC(=O)OC(C)C)nc1C", "Potency": "inconclusive: 0.0657 µM [inhibitor, full curve, poor fit]"}, {"smiles": "O=C(Nc1nnc(C2=COCCO2)o1)c1cccc(Br)c1", "Potency": "inconclusive: 18.5 µM [inhibitor, single point]"}, {"smiles": "Cc1noc(N)c1C(=O)Nc1ccc(C(C)(C)C)cc1", "Potency": "inactive"}, {"smiles": "O=C(Nc1nc2ccccc2s1)c1ccc(N2CCCCC2)c([N+](=O)[O-])c1", "Potency": "inconclusive: 13.1 µM [inhibitor, single point]"}, {"smiles": "Cc1noc(COc2ccccc2OCc2onc(C)c2Cl)c1Cl", "Potency": "inconclusive: 11.7 µM [inhibitor, partial curve, poor fit]"}, {"smiles": "COc1nc(OC)nc(N2CCC(C(=O)NCC3CCCCC3)CC2)n1", "Potency": "inconclusive: 18.5 µM [inhibitor, single point]"}, {"smiles": "CCOC(=O)CNc1c(-c2ccc(OC)cc2)nc2ccc(Cl)cn12", "Potency": "inconclusive: 11.7 µM [inhibitor, single point]"}, {"smiles": "CN(C)c1ccc(NC(=O)c2cnsn2)cc1", "Potency": "inconclusive: 4.15 µM [inhibitor, partial curve, poor fit]"}, {"smiles": "O=C(NCC(c1ccc(F)cc1)N1CCOCC1)c1cccnc1Sc1ccccc1", "note": "(centres undefined)", "Potency": "inconclusive: 11.7 µM [inhibitor, partial curve]"}, {"smiles": "CCc1sc(C(=O)Nc2ncccc2O)cc1C", "Potency": "inactive"}, {"smiles": "Cc1ccc(C2CC2C(=O)NNC(=S)Nc2cccc(C)c2)cc1", "note": "(centres undefined)", "Potency": "inconclusive: 11.7 µM [inhibitor, single point]"}, {"smiles": "O=C(CCCSc1nc2ccccc2[nH]1)NCc1ccco1", "Potency": "inconclusive: 10.4 µM [inhibitor, partial curve, poor fit]"}, {"smiles": "O=C(Nc1c2c(nn1-c1ccc(F)cc1)CS(=O)(=O)C2)C12CC3CC(CC(C3)C1)C2", "Potency": "inconclusive: 0.37 µM [inhibitor, partial curve, poor fit]"}, {"smiles": "COc1cc(NC(=O)N[C@@H](Cc2c[nH]c3ccccc23)C(=O)O)c(C(=O)O)cc1OC", "Potency": "inactive"}, {"smiles": "CCOC(=O)NC(Cc1c[nH]c2ccccc12)C(=O)NCCc1ccc(S(N)(=O)=O)cc1", "note": "(centres undefined)", "Potency": "inconclusive: 13.1 µM [inhibitor, partial curve]"}, {"smiles": "CCOc1ccc(NC(=O)C2CCCN(c3cnccn3)C2)cc1", "note": "(centres undefined)", "Potency": "inactive"}, {"smiles": "O=C(CCC(=O)N1CCN(c2ccccn2)CC1)c1ccc(Cl)s1", "Potency": "inactive"}, {"smiles": "O=c1c(NCCc2ccc(Cl)cc2)c(-c2ccccc2)c1=O", "Potency": "inconclusive: 3.7 µM [inhibitor, partial curve, poor fit]"}, {"smiles": "CN(C)C(CNC(=O)c1ccc(S(=O)(=O)Nc2ccccc2F)cc1)c1ccco1", "note": "(centres undefined)", "Potency": "inconclusive: 18.5 µM [inhibitor, single point]"}, {"smiles": "CCOC(=O)N1CCC(N(CCN(C)C)C(=S)Nc2ccccc2C)CC1", "Potency": "inconclusive: 0.0026 µM [inhibitor, full curve, poor fit]"}]}]}
